From paper PMC6208484 come the findings set out here.

No constants are given. Whether binding was seen depends on the method and setting. In cells and extracts the contact can be indirect. Some binding calls cover weakened binding; strength is not graded here. Where a sequence is shown, tags or fusion partners need not be part of it.

This test addresses Flag-RBM24 (RNA binding motif protein 24) (human) (UniProt Q9BX46). Nature of the test: co-IP; 293T cells co-transfected with pFlag-RBM24 and pHA-RBM24; lysates precipitated with anti-Flag, anti-HA or control IgG; blots with anti-HA and anti-[…].

B1: Flag-RBM24 (RNA binding motif protein 24) (protein, UniProt Q9BX46-1 1-236)
chain: MHTTQKDTTYTKIFVGGLPYHTTDASLRKYFEVFGEIEEAVVITDRQTGKSRGYGFVTMADRAAAERACKDPNPIIDGRKANVNLAYLGAKPRIMQPGFAFGVQQLHPALIQRPFGIPAHYVYPQAFVQPGVVIPHVQPTAAAASTTPYIDYTGAAYAQYSAAAAAAAAAAAYDQYPYAASPAAAGYVTAGGYGYAVQQPITAAAPGTAAAAAAAAAAAAAFGQYQPQQLQTDRMQ
As for B1, the binding entry is listed as “binds”.
